Experimental data reported in PubChem BioAssay AID504467 (National Center for Advancing Translational Sciences (NCATS), 2011).
In all, about 330,000 compounds went through this assay and about 7,700 (2.3%) were called active. Inconclusive means that the source gave no clear call. Such entries were picked first, then a sample of the others. Calls come from the whole dose curve; as a rule, active = well fitted inhibition curve with a large enough effect; inconclusive = small, poorly fitted or top-dose-only effect, or effect the other way; inactive = flat fitted curve, though single readings scatter. A potency beside an inconclusive call is a rough fit, not a confirmed value.

assay: qHTS screen for small molecules that inhibit ELG1-dependent DNA repair in human embryonic kidney (HEK293T) cells expressing luciferase-tagged ELG1; details: HEK293T ELG1-luciferase reporter, luminescence, 16 h, DNA damage induced by 5-fluorouridine; activity change, negative = inhibition: at 46.1 µM (top of the series); note: nearly all actives have a fitted effect of over 55% in size
Outline: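 Overnight (16 hr) co-exposure of 2,000 cells/well to 5-fluorouridine and compound at 37 °C preceded detection. Luciferase was quantified via ONE-Glo luminescence; loss of signal denotes inhibition.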
% is set by controls: 0 for no effect and ±100 for the full control effect; potency is the fitted concentration of half-maximal effect.

SMILES | activity change, negative = inhibition | Potency
O=C(COC(=O)C1CCC1)NCc1ccc(F)cc1 | inactive: 1.65% | –
CC(OC(=O)c1cc(Br)ccc1O)C(=O)NC1(C#N)CCCCC1 (centres undefined) | inactive: -9.73% | –
CC(/C=C/c1ccccc1)=N/NC(=O)c1cccc(Br)c1 | inactive: -6.04% | –
Cc1ccccc1C(=O)N1CCC(C(=O)Nc2ccc3c(c2)OCCO3)CC1 | – | inconclusive: 23.1 µM [inhibitor, single point]
COc1ccc(NC(=O)NCCc2cccc(Cl)c2)cc1OC | – | inconclusive: 25.9 µM [activator, single point]
Cc1cccc(C(=O)N=c2c(C#N)cc3c(=O)n4cccc(C)c4nc3n2Cc2ccco2)c1 | – | inconclusive: 29.1 µM [inhibitor, single point]
COc1ccccc1N(CC(=O)N/N=C/c1ccccc1C(=O)O)S(C)(=O)=O | inactive: 1.21% | –
CCCSc1ncc(Cl)c(C(=O)Nc2ccc(S(=O)(=O)Nc3ncccn3)cc2)n1 | – | inconclusive: 20.6 µM [activator, single point]
COc1ccccc1N1CCN(C(=O)c2sc3ncnc(N4CCN(c5ccccn5)CC4)c3c2C)CC1 | – | active: 18.3 µM
O=C(Nc1ccc2nc(-c3ccc4nc[nH]c4c3)[nH]c2c1)c1cccs1 | inactive: -22.1% | –
COc1cccc(/C=C/C(=O)OCC(=O)NCc2ccco2)c1 | inactive: 3.94% | –
COCCn1c(SCC(=O)Nc2ncc(C)s2)nc2sc3c(c2c1=O)CCC3 | – | inconclusive: 25.9 µM [inhibitor, single point]
Clc1ccc(CSCCc2ccncc2)cc1 | – | inconclusive: 20.6 µM [inhibitor, single point]
CCOC(=O)C1=C(C)N=C2SC(C(=O)OC)=CC(=O)N2C1c1cccc(OC)c1 (centres undefined) | inactive: -13.2% | –
CN(C)c1ccc(/C=C/c2ccc3ccccc3[n+]2C)cc1 | – | inconclusive: 6.51 µM [activator, single point]
N#Cc1c(SCc2cccc(Cl)c2)sc(C(=O)c2ccccc2)c1N | – | inconclusive: 20.6 µM [inhibitor, single point]
CCOc1ccc2c(c1)-c1c(ssc1=S)C(C)(C)N2C(=O)CSC1=NCCS1 | inactive: -3.95% | –
CC(OC(=O)c1ccc2c(=O)n3c(nc2c1)CCC3)C(=O)NC1CCCCC1C (centres undefined) | inactive: -3.67% | –
CCCCN1C(=O)C(O)=C(C(C)=O)C1c1ccccc1 (centres undefined) | inactive: -0.751% | –
CC(C)[C@H](NS(=O)(=O)c1ccccc1)C(=O)OCC(=O)N1N=C(c2ccc(Cl)cc2)CC1c1ccco1 (some centres undefined) | – | inconclusive: 25.9 µM [inhibitor, partial curve]
Fc1ccc(NC(=S)N2CCn3cccc3C2c2cccnc2)cc1 (centres undefined) | inactive: -5.57% | –
N#C/C(=C\c1cn(-c2ccccc2)nc1-c1cc2ccccc2o1)c1nc2ccccc2[nH]1 | – | inconclusive: 5.17 µM [activator, single point]
COc1ccc2[nH]c(C(=O)NCc3ccccc3)cc2c1 | – | inconclusive: 29.1 µM [inhibitor, single point]
O=C(Nc1ccc(F)c(F)c1)c1ccc2c(c1)OCO2 | – | inconclusive: 2.59 µM [activator, partial curve]
Nc1ccccc1C(=O)/C=C/c1ccc2c(c1)OCO2 | – | inconclusive: 2.91 µM [activator, full curve]

Entries of single compounds as entered above.
`N#Cc1c(SCc2cccc(Cl)c2)sc(C(=O)c2ccccc2)c1N` is entered as Potency: inconclusive: 20.6 µM [inhibitor, single point]
`COCCn1c(SCC(=O)Nc2ncc(C)s2)nc2sc3c(c2c1=O)CCC3` is entered as Potency: inconclusive: 25.9 µM [inhibitor, single point]
`COc1ccccc1N(CC(=O)N/N=C/c1ccccc1C(=O)O)S(C)(=O)=O` is entered as activity change, negative = inhibition: inactive: 1.21%
`CCCCN1C(=O)C(O)=C(C(C)=O)C1c1ccccc1` (centres undefined) is entered as activity change, negative = inhibition: inactive: -0.751%

(list continues)

SMILES | activity change, negative = inhibition | Potency
CCN(C(=S)Nc1cccnc1)c1cccc2ccccc12 | inactive: -19.4% | –
CC(C)n1cnc2cc(NCc3ccccc3O)ccc21 | – | inconclusive: 18.3 µM [activator, partial curve]
Cc1ccc(OCCn2c(Br)nc3c2c(=O)n(C)c(=O)n3C)cc1 | – | active: 5.17 µM
CCOc1ccc(NS(=O)(=O)c2ccc(NC(=S)NC(C)=O)cc2)cc1 | inactive: 0.588% | –
CC(C)c1ccc(N2C(=O)CC(NNC(=O)c3ccccc3Cl)C2=O)cc1 (centres undefined) | inactive: -2.29% | –
COc1ccc(C(=O)C(OC(=O)c2ccccc2)c2ccccc2)cc1 (centres undefined) | – | inconclusive: 18.4 µM [activator, partial curve]
Cn1c(C(=O)O)c(CC(=O)Nc2ccc3c(c2)OCCO3)c2ccccc21 | – | inconclusive: 18.4 µM [activator, partial curve]
CC(=O)NC1=C(Nc2ccc(N(C)C)cc2)C(=O)c2ccccc2C1=O | – | inconclusive: 2.31 µM [activator, partial curve]
Cc1ccc(C(=O)Nc2ccc(S(=O)(=O)N3CCOCC3)cc2)cc1C | – | inconclusive: 29.1 µM [inhibitor, single point]
O=C(Nc1ccc(NC(=O)c2ccco2)nc1)c1cccc(F)c1 | – | inconclusive: 6.51 µM [activator, partial curve]
Cc1c(Cl)cccc1NC(=S)NN1CCOCC1 | inactive: 0.553% | –
Cc1nnsc1C(=O)Nc1cccc(Cl)c1Cl | – | inconclusive: 20.6 µM [activator, partial curve]
CCCCn1c(N)c(N(CCC(C)C)C(=O)CCCc2nc3ccccc3s2)c(=O)[nH]c1=O | inactive: -13.8% | –
COCCn1cnnc1SCC(=O)Nc1ccccc1C(=O)Nc1ccc2c(c1)OCO2 | – | inconclusive: 23.1 µM [activator, single point]
COCCn1c(-c2ccccc2F)n[nH]c1=S | inactive: 7.93% | –
Cc1c(C(=O)N2CCCCC2C)sc2ncnc(N3CCc4ccccc4C3)c12 (centres undefined) | – | active: 20.6 µM
COc1ccc[nH]c1=O | inactive: 15.8% | –
COc1ccc(/C=C/C(=O)c2ccc(NC(=O)c3cccs3)cc2)cc1OC | – | inconclusive: 32.6 µM [inhibitor, single point]
COc1ccccc1CN1CCCC(CN(CCN(C)C)C(=O)C2CCCC2)C1 (centres undefined) | inactive: -5.01% | –
Cc1noc(C)c1COc1ccccc1C(=O)N(C)CC(=O)Nc1ccc(Cl)c(Cl)c1 | – | inconclusive: 9.2 µM [inhibitor, single point]
Cc1cc(C)nc(SCc2nnc(SCC(=O)Nc3nc(-c4ccccc4)cs3)n2C)n1 | – | inconclusive: 32.6 µM [inhibitor, single point]
CCOC(=O)c1c(C)[nH]c(C(=O)OCCOc2ccccc2C)c1C | – | inconclusive: 2.31 µM [activator, partial curve]
COc1cccc(OC)c1OCCCCN1CCC(Cc2ccccc2)CC1 | – | inconclusive: 20.6 µM [inhibitor, single point]
COc1cccc(-n2nc(C#N)c(Cl)cc2=O)c1 | – | inconclusive: 29.1 µM [inhibitor, single point]
CCC(C)C(=O)Nc1cc(C(=O)OC)ccc1C(=O)OC (centres undefined) | inactive: 11.5% | –

SMILES | activity change, negative = inhibition | Potency
CC1(C)CC(=O)/C(=C(\O)c2ccccc2)C(=NCCc2ccccc2)C1 | inactive: -12.9% | –
CC(/C=N/N1CCN(c2ccccc2)CC1)=C\c1ccccc1 | – | inconclusive: 29.1 µM [activator, single point]
COC(=O)Cn1c(O)c(N=NC(=O)c2ccc3c(c2)OCO3)c2ccccc21 | – | inconclusive: 6.51 µM [activator, partial curve]
CCOc1ccc(OCC)c(NC(=O)CN2CCN(c3cccc(C)c3)C(C)C2)c1 (centres undefined) | – | inconclusive: 16.4 µM [inhibitor, single point]
COc1ccc(CCNC(=O)CSc2nc3[nH]ncc3c(=O)n2-c2ccccc2Br)cc1OC | inactive: 15.9% | –
CC(=O)Nc1ccc(S(=O)(=O)N=S(C)C)cc1 | – | inconclusive: 0.631 µM [inhibitor, full curve, poor fit]
c1ccc(-c2nc3c([nH]2)CCc2nonc2-3)cc1 | – | inconclusive: 29.1 µM [activator, single point]
CC1(C)C2CCC1(C)C(Nc1ccccc1)C2 (centres undefined) | – | inconclusive: 4.61 µM [activator, partial curve, poor fit]
CCN(CC)CCN1C(=O)/C(=C\c2ccc(Cl)c([N+](=O)[O-])c2)SC1=Nc1ccc(OC)cc1 | – | inconclusive: 25.9 µM [inhibitor, single point]
O=C(NC(CC(=O)N1CCCC(C(F)(F)F)C1)c1ccccc1)c1ccccc1Cl (centres undefined) | – | inconclusive: 16.4 µM [activator, partial curve, poor fit]
CC1=C/C(=N\NC(=O)c2ccccc2)CC1 | – | inconclusive: 16.4 µM [activator, single point]
Cc1csc(NC(=O)C2CC(=O)N(c3ccc(C)c(C)c3)C2)n1 (centres undefined) | inactive: 5.72% | –
C[C@H]1CN=C(Nc2ccccc2)N1CCc1ccccc1 | inactive: 1.63% | –
Cc1cc(C(=O)CSc2nnnn2C)c(C)n1CCc1ccc(Cl)cc1 | – | inconclusive: 5.17 µM [inhibitor, single point]
Cc1ccc(-c2nn(-c3ccccc3)cc2C(=O)Nc2ccc(C)c(S(=O)(=O)N3CCOCC3)c2)cc1 | – | inconclusive: 14.6 µM [inhibitor, partial curve, poor fit]
CC(C)(C)c1ccc(C(=O)N/C(N)=N/c2nc3ccccc3o2)cc1 | inactive: -16.3% | –
COC(=O)c1ccc(CNC(=O)C2CCC(=O)N(CCCc3ccccc3)C2)cc1 (centres undefined) | inactive: -14.1% | –
O=C(NC(=S)NC1CC1)c1cccnc1 | inactive: 8.98% | –
CCN(CC)C(=O)c1sc(NC(=O)c2ccc(C)c([N+](=O)[O-])c2)c(C#N)c1C | inactive: -26.6% | –
CCS(=O)(=O)N1CCN(C(=O)c2ccco2)CC1 | inactive: 6.24% | –
CC1CCCC(NC(=O)C2CCCN2S(=O)(=O)c2cccc3nsnc23)C1C (centres undefined) | – | inconclusive: 13 µM [inhibitor, partial curve]
Cc1cccc(SCC(=O)Nc2ccc3c(c2)OCCO3)c1 | – | inconclusive: 5.8 µM [activator, single point]
O=C(CSc1nc2ccccc2c(=O)n1-c1ccccc1)N/N=C/C=C/c1ccccc1[N+](=O)[O-] | – | active: 2.91 µM
COc1ccc(OC)c(C(=O)CSc2nnc(Cc3cccs3)n2CCc2ccccc2)c1 | – | inconclusive: 18.4 µM [inhibitor, single point]
